Earlier results, collected in patent US20210145768A1, “MODULATING IMMUNE RESPONSE VIA TARGETING OF OLFACTORY RECEPTOR ACTIVITY” (La Jolla Institute for Allergy and Immunology, priority 2018, published 2021).
At least one compound was matched to its structure with a doubt left.

Test system: olfactory receptors
Conditions: odorant (agonist) : olfactory receptor pair; cited from earlier work
For `C=C(C)C1CC=C(C)C(=O)C1` (single isomer, unassigned; (-)) [(−)-carvone], the “Olfactory receptor agonized by the odorant (agonist)” value (“Olfactory receptor agonized” below) is given as “OR8B3”. For `CCCCOC(=O)C(C)OC(=O)CCC` (centres unmarked) [Butyl butyryllactate], the “Olfactory receptor agonized” value is given as “OR51E1”. In the case of `COc1ccc(C=O)cc1` [anisaldehyde], the “Olfactory receptor agonized” value is listed as “OR6P1”. In the case of `C=C(C)[C@@H]1CC=C(C)C(=O)C1` [r-carvone], the “Olfactory receptor agonized” value is given as “OR8B3”. In the case of `CC(=O)/C=C/C1=C(C)CCCC1(C)C` [β-ionone], the “Olfactory receptor agonized” value is listed as “OR51E2”.
